Data as given in the supplement of paper PMC12823440, “Inhibitors supercharge kinase turnover through native proteolytic circuits” (Nature, 2025).
Structures can show the parent of a compound that is named as a salt. This is one part of the list. Hit calls seldom repeat between salt and free forms of one compound.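 Kinases were expressed as nanoluciferase fusions in K562 cells and luminescence was read every 4 h between 2 and 18 h as percent of control, DMSO set to 100% and a positive control to 0%. A time point counts as decreased when the signal drops significantly (2 sigma). The hit call is the authors' own, does not follow from the count of time points alone, and its rule is not shown.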

Chains of the proteins cited; added tags and fusions are not shown. Lines headed by an entry give the natural chain unless they say otherwise; changes in a name come on top.
UniProt O75460: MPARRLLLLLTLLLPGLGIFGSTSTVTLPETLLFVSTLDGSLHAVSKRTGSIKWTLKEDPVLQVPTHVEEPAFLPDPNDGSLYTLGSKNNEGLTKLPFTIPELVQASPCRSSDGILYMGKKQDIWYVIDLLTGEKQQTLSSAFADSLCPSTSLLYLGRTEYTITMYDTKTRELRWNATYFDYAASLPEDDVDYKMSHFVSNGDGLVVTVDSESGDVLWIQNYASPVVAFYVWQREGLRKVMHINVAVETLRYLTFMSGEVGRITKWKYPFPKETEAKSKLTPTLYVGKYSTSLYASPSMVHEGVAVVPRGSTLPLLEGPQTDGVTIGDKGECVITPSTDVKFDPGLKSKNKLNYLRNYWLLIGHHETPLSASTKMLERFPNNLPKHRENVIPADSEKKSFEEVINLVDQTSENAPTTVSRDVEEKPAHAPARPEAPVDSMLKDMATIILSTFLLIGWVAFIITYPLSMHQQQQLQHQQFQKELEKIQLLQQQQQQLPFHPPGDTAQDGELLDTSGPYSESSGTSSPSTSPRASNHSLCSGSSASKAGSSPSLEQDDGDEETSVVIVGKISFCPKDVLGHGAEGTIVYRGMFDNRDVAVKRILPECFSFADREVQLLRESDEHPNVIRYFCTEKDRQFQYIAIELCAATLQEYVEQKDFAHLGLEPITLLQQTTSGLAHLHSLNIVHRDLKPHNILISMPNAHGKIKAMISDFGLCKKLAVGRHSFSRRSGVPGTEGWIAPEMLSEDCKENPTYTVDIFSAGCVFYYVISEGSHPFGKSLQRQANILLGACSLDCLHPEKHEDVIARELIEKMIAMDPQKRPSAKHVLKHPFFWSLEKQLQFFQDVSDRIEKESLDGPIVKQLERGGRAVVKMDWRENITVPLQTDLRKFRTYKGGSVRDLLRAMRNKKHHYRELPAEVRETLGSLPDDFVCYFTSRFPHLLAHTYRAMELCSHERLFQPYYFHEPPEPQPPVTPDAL
UniProt P11362, whole entry, looked up: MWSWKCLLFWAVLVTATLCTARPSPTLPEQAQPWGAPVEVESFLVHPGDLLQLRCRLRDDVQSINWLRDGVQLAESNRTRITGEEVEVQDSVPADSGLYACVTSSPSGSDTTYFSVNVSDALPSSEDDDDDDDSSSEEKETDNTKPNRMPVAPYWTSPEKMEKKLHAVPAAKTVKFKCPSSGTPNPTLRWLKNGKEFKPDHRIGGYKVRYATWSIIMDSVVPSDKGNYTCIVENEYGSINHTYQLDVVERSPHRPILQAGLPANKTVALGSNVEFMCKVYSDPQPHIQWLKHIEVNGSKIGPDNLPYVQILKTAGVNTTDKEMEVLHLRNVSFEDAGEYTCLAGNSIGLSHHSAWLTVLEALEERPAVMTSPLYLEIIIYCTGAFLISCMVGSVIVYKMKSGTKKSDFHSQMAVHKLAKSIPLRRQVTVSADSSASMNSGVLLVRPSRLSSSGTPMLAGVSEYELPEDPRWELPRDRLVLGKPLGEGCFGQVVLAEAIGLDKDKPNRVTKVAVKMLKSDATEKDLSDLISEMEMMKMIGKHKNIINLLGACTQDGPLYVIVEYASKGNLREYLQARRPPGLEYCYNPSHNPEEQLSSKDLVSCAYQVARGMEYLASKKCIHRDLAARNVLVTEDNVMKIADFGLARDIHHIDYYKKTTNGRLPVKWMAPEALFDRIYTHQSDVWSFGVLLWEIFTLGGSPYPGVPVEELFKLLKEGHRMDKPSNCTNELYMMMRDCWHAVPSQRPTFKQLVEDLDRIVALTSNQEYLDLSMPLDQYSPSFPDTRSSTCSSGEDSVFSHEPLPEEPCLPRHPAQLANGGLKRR
UniProt P21802, whole entry, looked up: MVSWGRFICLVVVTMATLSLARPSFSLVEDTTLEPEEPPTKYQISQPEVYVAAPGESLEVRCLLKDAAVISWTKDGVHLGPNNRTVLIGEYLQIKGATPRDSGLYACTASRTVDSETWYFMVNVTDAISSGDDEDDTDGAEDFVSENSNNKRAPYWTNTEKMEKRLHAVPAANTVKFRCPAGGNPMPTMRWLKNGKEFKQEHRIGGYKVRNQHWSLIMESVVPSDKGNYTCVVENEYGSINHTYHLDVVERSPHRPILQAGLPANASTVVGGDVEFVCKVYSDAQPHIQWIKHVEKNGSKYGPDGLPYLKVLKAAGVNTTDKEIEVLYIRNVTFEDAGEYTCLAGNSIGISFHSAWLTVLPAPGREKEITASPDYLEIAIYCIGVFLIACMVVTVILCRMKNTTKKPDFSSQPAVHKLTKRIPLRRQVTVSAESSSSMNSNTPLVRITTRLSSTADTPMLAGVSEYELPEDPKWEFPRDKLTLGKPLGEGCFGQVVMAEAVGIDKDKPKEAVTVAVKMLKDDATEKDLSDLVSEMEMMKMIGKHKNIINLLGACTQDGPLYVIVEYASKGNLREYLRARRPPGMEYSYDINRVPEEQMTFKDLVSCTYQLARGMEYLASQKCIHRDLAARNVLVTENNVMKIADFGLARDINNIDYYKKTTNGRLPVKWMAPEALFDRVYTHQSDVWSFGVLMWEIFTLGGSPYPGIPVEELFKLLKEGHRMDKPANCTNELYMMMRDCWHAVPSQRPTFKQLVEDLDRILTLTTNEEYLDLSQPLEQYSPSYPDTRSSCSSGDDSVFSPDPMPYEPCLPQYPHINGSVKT
UniProt P22607, whole entry, looked up: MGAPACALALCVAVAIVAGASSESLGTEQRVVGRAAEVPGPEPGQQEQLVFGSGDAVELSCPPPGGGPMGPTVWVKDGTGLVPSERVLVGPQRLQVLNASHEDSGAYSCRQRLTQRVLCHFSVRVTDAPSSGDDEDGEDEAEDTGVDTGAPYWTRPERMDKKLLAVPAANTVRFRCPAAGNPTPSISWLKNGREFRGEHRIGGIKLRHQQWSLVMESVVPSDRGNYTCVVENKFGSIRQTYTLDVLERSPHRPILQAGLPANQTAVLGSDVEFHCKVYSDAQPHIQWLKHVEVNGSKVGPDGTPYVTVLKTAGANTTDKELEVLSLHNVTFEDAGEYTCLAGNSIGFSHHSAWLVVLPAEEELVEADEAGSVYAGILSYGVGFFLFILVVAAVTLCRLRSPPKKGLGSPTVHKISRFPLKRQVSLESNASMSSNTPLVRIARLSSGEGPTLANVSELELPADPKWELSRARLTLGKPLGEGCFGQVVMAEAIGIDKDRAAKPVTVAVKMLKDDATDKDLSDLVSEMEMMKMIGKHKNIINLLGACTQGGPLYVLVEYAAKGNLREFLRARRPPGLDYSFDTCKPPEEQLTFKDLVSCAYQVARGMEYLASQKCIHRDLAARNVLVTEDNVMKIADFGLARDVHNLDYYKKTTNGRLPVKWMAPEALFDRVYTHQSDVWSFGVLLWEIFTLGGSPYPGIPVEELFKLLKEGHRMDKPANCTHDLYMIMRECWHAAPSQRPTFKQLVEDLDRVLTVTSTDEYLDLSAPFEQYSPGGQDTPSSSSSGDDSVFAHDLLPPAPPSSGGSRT
UniProt P06241, whole entry, looked up: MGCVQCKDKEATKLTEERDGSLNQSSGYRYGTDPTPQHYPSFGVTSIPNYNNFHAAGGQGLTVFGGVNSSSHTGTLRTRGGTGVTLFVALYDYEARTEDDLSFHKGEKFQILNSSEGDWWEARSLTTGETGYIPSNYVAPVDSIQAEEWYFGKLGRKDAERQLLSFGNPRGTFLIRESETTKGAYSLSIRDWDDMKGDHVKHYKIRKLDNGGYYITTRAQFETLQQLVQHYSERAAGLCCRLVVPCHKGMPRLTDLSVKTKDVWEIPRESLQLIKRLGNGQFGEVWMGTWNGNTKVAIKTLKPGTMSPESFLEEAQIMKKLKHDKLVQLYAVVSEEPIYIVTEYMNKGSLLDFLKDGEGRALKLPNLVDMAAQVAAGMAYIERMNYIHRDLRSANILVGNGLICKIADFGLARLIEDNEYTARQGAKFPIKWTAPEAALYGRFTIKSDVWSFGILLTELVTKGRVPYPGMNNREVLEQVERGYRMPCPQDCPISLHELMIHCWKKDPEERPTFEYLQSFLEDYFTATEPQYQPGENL
UniProt P49840: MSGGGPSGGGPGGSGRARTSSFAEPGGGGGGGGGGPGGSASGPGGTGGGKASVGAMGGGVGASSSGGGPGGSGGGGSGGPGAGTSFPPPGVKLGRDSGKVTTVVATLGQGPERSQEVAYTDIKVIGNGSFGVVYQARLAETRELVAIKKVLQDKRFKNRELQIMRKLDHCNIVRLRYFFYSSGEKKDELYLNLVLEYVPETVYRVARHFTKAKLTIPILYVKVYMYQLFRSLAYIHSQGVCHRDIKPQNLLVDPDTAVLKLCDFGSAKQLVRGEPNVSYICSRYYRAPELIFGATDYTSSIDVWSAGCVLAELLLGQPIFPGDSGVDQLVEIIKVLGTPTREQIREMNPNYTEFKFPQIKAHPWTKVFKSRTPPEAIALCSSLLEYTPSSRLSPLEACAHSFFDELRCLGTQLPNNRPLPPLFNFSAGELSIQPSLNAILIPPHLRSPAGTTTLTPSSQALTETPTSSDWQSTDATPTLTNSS
UniProt P14616: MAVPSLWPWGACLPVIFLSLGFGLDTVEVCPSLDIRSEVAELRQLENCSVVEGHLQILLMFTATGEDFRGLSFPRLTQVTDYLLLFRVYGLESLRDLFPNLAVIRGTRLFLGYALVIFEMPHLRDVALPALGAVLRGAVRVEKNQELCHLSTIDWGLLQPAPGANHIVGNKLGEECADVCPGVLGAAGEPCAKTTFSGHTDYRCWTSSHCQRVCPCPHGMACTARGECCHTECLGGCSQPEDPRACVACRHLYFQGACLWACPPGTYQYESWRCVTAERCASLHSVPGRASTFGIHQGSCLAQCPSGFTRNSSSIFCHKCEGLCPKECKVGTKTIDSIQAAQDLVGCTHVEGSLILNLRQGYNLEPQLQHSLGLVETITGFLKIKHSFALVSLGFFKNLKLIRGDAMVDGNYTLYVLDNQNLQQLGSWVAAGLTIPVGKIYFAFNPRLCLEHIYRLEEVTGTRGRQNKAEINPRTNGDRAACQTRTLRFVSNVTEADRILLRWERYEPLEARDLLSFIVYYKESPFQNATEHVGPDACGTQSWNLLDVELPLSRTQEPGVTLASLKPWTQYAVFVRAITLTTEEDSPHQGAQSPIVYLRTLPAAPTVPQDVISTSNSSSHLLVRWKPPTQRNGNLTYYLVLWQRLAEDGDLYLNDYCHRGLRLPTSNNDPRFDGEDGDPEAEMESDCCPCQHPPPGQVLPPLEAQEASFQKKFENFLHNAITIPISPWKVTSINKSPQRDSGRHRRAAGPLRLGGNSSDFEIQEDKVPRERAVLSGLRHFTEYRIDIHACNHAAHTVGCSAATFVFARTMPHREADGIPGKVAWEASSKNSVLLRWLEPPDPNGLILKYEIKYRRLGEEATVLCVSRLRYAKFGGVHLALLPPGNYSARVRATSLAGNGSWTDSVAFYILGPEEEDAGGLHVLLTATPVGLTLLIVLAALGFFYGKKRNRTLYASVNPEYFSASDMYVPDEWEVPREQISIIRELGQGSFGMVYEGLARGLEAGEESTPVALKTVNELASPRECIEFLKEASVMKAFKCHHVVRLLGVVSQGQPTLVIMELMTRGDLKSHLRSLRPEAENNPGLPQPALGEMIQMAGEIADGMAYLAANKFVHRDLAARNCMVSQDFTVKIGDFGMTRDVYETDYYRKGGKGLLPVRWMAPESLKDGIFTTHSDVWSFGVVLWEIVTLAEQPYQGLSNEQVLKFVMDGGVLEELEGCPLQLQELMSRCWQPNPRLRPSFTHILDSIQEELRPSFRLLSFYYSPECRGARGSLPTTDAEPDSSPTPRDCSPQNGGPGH

Experiments:
Test in all cases: kinase-Nluc reporter destabilization hit call (1 = scored as downregulated) (binary); higher = compound decreases kinase abundance
Details in all cases: K562; 2-18 h
ERN1 = ERN1 (UniProt O75460)
FGFR1 = FGFR1 (UniProt P11362)
FGFR2 = FGFR2 (UniProt P21802)
FGFR3 = FGFR3 (UniProt P22607)
FGR = FGR (UniProt P09769)
FLT3 = FLT3 (UniProt P36888)
FYN = FYN (UniProt P06241)
GSK3A = GSK3A (UniProt P49840)
HER2 = HER2 (UniProt P04626)
INSRR = INSRR (UniProt P14616)

Measured: kinase-Nluc reporter destabilization hit call

COc1c(NC(=O)C(=O)c2ccc(OCCN3CCOCC3)c3ccccc23)cc(C(C)(C)C)cc1NS(C)(=O)=O (2.5 µM)
inactive: ERN1 = 0 | FGFR1 = 0 | FGFR2 = 0 | FGFR3 = 0 | FGR 0 | FLT3 = 0 | FYN 0 | GSK3A 0 | HER2 = 0 | INSRR 0

CN1CCN(c2ccc(C(=O)Nc3cc(-c4cccc(NS(=O)(=O)c5ccccc5)c4)[nH]n3)cc2)CC1 [BPR1J-097 Hydrochloride] (2.5 µM)
inactive: ERN1 = 0 | FGFR1 = 0 | FGFR2 = 0 | FGFR3 = 0 | FGR 0 | FLT3 = 0 | FYN 0 | GSK3A 0 | HER2 = 0 | INSRR 0

OC(COc1ccc(C(F)(F)F)cc1)CN(Cc1ccccc1)Cc1ccccc1 (stereo not given) (2.5 µM)
inactive: ERN1 = 0 | FGFR1 = 0 | FGFR2 = 0 | FGFR3 = 0 | FGR 0 | FLT3 = 0 | FYN 0 | GSK3A 0 | HER2 = 0 | INSRR 0

NC1(Cc2ccc(Cl)cc2)CCN(c2ncnc3[nH]ccc23)CC1 (10 µM)
inactive: ERN1 = 0 | FGFR1 = 0 | FGFR2 = 0 | FGFR3 = 0 | FGR 0 | FLT3 = 0 | FYN 0 | GSK3A 0 | HER2 = 0 | INSRR 0

C=C1C(=O)O[C@@H]2C[C@@]3(C)CCC[C@H](C)C3=C[C@H]12 [Alantolactone] (10 µM)
inactive: ERN1 = 0 | FGFR1 = 0 | FGFR2 = 0 | FGFR3 = 0 | FGR 0 | FLT3 = 0 | FYN 0 | GSK3A 0 | HER2 = 0 | INSRR 0

Cc1cc(Nc2cc3ncccc3c(N[C@@H]3C[C@H]4CC[C@@H](C3)N4CCC#N)n2)n[nH]1 [Izencitinib] (10 µM)
inactive: ERN1 = 0 | FGFR1 = 0 | FGFR2 = 0 | FGFR3 = 0 | FGR 0 | FLT3 = 0 | FYN 0 | GSK3A 0 | HER2 = 0 | INSRR 0

Cc1cc(NC(=O)c2cccc(NC(=O)/C=C/CN(C)C)c2)ccc1Nc1nccc(-c2cccnc2)n1 (10 µM)
inactive: ERN1 = 0 | FGFR1 = 0 | FGFR2 = 0 | FGFR3 = 0 | FGR 0 | FLT3 = 0 | FYN 0 | GSK3A 0 | HER2 = 0 | INSRR 0

An excerpt from above in order of SMILES length, high to low.
Cc1cc(Nc2cc3ncccc3c(N[C@@H]3C[C@H]4CC[C@@H](C3)N4CCC#N)n2)n[nH]1 [Izencitinib] (10 µM)
inactive: ERN1 = 0 | FGFR1 = 0 | FGFR2 = 0 | FGFR3 = 0 | FGR 0 | FLT3 = 0 | FYN 0 | GSK3A 0 | HER2 = 0 | INSRR 0

C=C1C(=O)O[C@@H]2C[C@@]3(C)CCC[C@H](C)C3=C[C@H]12 [Alantolactone] (10 µM)
inactive: ERN1 = 0 | FGFR1 = 0 | FGFR2 = 0 | FGFR3 = 0 | FGR 0 | FLT3 = 0 | FYN 0 | GSK3A 0 | HER2 = 0 | INSRR 0

NC1(Cc2ccc(Cl)cc2)CCN(c2ncnc3[nH]ccc23)CC1 (10 µM)
inactive: ERN1 = 0 | FGFR1 = 0 | FGFR2 = 0 | FGFR3 = 0 | FGR 0 | FLT3 = 0 | FYN 0 | GSK3A 0 | HER2 = 0 | INSRR 0

Following part:

COC1(c2sc3c(N4CCOCC4)nc(-c4cnc(N)nc4)nc3c2C)COC1 (2.5 µM)
inactive: ERN1 = 0 | FGFR1 = 0 | FGFR2 = 0 | FGFR3 = 0 | FGR 0 | FLT3 = 0 | FYN 0 | GSK3A 0 | HER2 = 0 | INSRR 0

O=C1Nc2nc(-c3c(O)cccc3OCC3CC3)cc([C@@H]3CCCNC3)c2CO1 [Bay 65-1942 (hydrochloride)] (10 µM)
inactive: ERN1 = 0 | FGFR1 = 0 | FGFR2 = 0 | FGFR3 = 0 | FGR 0 | FLT3 = 0 | FYN 0 | GSK3A 0 | HER2 = 0 | INSRR 0

Cc1ccc(S(=O)(=O)Nc2ccccc2C=Nc2ccccc2NS(=O)(=O)c2ccc(C)cc2)cc1 (10 µM)
inactive: ERN1 = 0 | FGFR1 = 0 | FGFR2 = 0 | FGFR3 = 0 | FGR 0 | FLT3 = 0 | FYN 0 | GSK3A 0 | HER2 = 0 | INSRR 0

CC[C@@]1(c2ccccc2)C2=C(CC(C)(C)CC2=O)Nc2[nH]ncc21 (10 µM)
inactive: ERN1 = 0 | FGFR1 = 0 | FGFR2 = 0 | FGFR3 = 0 | FGR 0 | FLT3 = 0 | FYN 0 | GSK3A 0 | HER2 = 0 | INSRR 0

Fc1ccc(-c2nc(-c3c(F)cccc3F)[nH]c2-c2ccncc2)cc1 (10 µM)
inactive: ERN1 = 0 | FGFR1 = 0 | FGFR2 = 0 | FGFR3 = 0 | FGR 0 | FLT3 = 0 | FYN 0 | GSK3A 0 | HER2 = 0 | INSRR 0

COc1ccc2c(c1O)OC(C)(C)c1c-2ccc2c1C(=O)N(c1ccc(C(=O)c3ccccc3)cc1)C2=O [Ampkinone] (10 µM)
inactive: ERN1 = 0 | FGFR1 = 0 | FGFR2 = 0 | FGFR3 = 0 | FGR 0 | FLT3 = 0 | FYN 0 | GSK3A 0 | HER2 = 0 | INSRR 0

c1cn2cc(-c3ccc4cn[nH]c4c3)nc(Nc3ccc(N4CCOCC4)cc3)c2n1 [Entospletinib] (10 µM)
inactive: ERN1 = 0 | FGFR1 = 0 | FGFR2 = 0 | FGFR3 = 0 | FGR 0 | FLT3 = 0 | FYN 0 | GSK3A 0 | HER2 = 0 | INSRR 0

C#CCN(C)C(=O)CCNc1nc(N2CCN(C(=O)C=C)CC2)c2cc(Cl)c(-c3c(O)cccc3F)c(F)c2n1 [ARS-1323-alkyne] (2.5 µM)
inactive: ERN1 = 0 | FGFR1 = 0 | FGFR2 = 0 | FGFR3 = 0 | FGR 0 | FLT3 = 0 | FYN 0 | GSK3A 0 | HER2 = 0 | INSRR 0
